Data taken from patent US20200190172A1, “METHOD FOR DIAGNOSING/DETERMINING THE EFFECTIVENESS OF TREATMENT FOR DEPRESSION” (Centre National De La Recherche Scientifique, priority 2016, published 2020).

Test system: anti-spadin antibodies (AB1 polyclonal antibody)
Experiment: AlphaLISA competition assay: biotinylated spadin / anti-spadin antibody displaced by peptides
Assay type: binding, rabbit
Conditions: range of values of detection in the AlphaLISA assay

Substance	Detectable quantity [ng/mL]	Detectable quantity (ng/mL)
APLPRWSGPIGVSWGL [12-27 PE, peptide fragment 12 to 27 of the propeptide]	1.5 to 400	
APLPRWSGPIGVSWGLR [spadin]	1.5 to 400	
GVSWGLR [22-28 PE, peptide fragment 22 to 28 of the propeptide]		Not detectable
LPRWSGPIGVSW [14-25 PE, peptide fragment 14 to 25 of the propeptide]	0.8 to 300	
QDRLDAPPPPAAPLPR [1-16 PE, peptide fragment 1 to 16 of the propeptide]		not detectable
